No constants are given. Whether binding was seen depends on the method and setting. Some binding calls cover weakened binding; strength is not graded here.
Target: Haptoglobin protein (UniProt P00738)
Experiment: equilibrium batch binding to ligand-conjugated resin, 1.5 mg/mL haptoglobin, 60 min, A280 of unbound

By UniProt entry, the sequences of proteins in these tests, tags left out. Where a name states a change or a piece, a line headed by the entry shows the natural chain unless it says otherwise.
UniProt P00738: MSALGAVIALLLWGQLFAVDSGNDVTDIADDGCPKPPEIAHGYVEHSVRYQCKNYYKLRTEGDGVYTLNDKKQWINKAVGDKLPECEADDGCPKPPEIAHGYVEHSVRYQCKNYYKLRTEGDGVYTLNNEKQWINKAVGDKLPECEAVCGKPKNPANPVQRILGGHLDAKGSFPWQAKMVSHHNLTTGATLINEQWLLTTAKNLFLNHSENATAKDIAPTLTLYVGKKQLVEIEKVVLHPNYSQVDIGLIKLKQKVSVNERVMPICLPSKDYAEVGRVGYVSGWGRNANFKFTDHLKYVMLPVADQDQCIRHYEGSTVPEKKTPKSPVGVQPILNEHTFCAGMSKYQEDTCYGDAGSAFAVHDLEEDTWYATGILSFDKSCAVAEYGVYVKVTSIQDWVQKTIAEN

Row | Binder | binding
1 | SEQ ID NO. 68 (designed binder) ligand: MVDAKFDKELEEARAEIEGLPNLTEQQRRNFIHALRQDPSDSAALLAIAKAWDDRQAPKAAAHHHHHHC | binds
2 | SEQ ID NO. 73 (designed binder) ligand: MVDAKFDKELEEARAEIERLPNLTEQQRRNFIHALRQDPSDSAALLAIARAWYDRQAPKAAAHHHHHHC | binds
3 | SEQ ID NO. 69 (designed binder) ligand: MVDAKFDKELEEARAEIERLPNLTEQLRRNFIHALRQDPSDSAALLAIARAWYDRQAPKAAAHHHHHHC | binds
4 | SEQ ID NO. 75 (designed binder) ligand: MVDAKFDKELEEARAEIERLPNLTEQQRRNLIHALRQDPSDSAALLAIAKAWNDRQAPKAAAHHHHHHC | binds
5 | SEQ ID NO. 70 (designed binder) ligand: MVDAKFDKELEEARAEIERLPNLTEQQRRNFIHALHQDPSDSAALLAIAKARNDRQAPKAAAHHHHHHC | binds
6 | SEQ ID NO. 72 (designed binder) ligand: MVDAKFDKELEEARAEIERLPNLTEQQRRNFIHALRQDPSDSAALLAIAKSWNDRQAPKAAAHHHHHHC | binds
7 | SEQ ID NO. 71 (designed binder) ligand: MVDAKFDKELEEARAEIERLPNLTEQQRRNFIHALRQDPSDSAALLAIAKAWRDRQAPKAAAHHHHHHC | binds
8 | SEQ ID NO. 76 (designed binder) ligand: MVDAKFDKELEEARAEIERLTNLTEQQRRNFIHALRQDPSDSAALLAIAKAWNDRQAPKAAAHHHHHHC | binds
9 | SEQ ID NO. 74 (designed binder) ligand: MVDAKFDKELEEARAEIERLPNLTEQQRRNFIHALRQDQSDSAALLAIAKAWNDRQAPKAAAHHHHHHC | binds

Other lines, results leading:

Row | binding | Binder
10 | binds | SEQ ID NO. 85 (designed binder) ligand: MVDAKFDKELEEARAEIERLPNLTEHQRRHFILALRHDPSDSAALLAIAKAWNDRQAPKAAAHHHHHHC
11 | binds | SEQ ID NO. 83 (designed binder) ligand: MVDAKFDKELEEARAEIGRLPDLTEQQRRNFIHTLRQDPSGSAALLAIAKAWNDRQAPKAAAHHHHHHC
12 | binds | SEQ ID NO. 78 (designed binder) ligand: MVDAKFDKELEEARAETERLPNLTEQQRRNFIHALRQDPSDSAALLAIAKAWNDRQAPKAAAHHHHHHC
13 | binds | SEQ ID NO. 84 (designed binder) ligand: MVDAKFDKELEEARAEIERLPNLTEQQRRNFIHALRQDLPDSAALLAIAKAWNDRQAPKAAAHHHHHHC
14 | binds | SEQ ID NO. 82 (designed binder) ligand: MVDAKFDKELEEARAEIERLPNLTEQQRRNFIHALRQDPSDSAAQLAIAKAWNDRQAPKAAAHHHHHHC
15 | binds | SEQ ID NO. 81 (designed binder) ligand: MVDAKFDKELEEARAEIERLPNLTEQQRRNLIHALRQDPSDSASLLAIAKAWNDRQAPKAAAHHHHHHC
16 | binds | SEQ ID NO. 77 (designed binder) ligand: MVDAKFDKELEEARAEIGRLPDLTEQQRRNFTHTLRQDPSGSAALLAIAKAWNDRQAPKAAAHHHHHHC
17 | binds | SEQ ID NO. 80 (designed binder) ligand: MVDAKFDKELEEARAEIERLPNLTEQQRRNFIHALRQDPSDSAALLAIAKAWSDRQAPKAAAHHHHHHC
18 | binds | SEQ ID NO. 79 (designed binder) ligand: MVDAKFDKELEVARAEIERLPNLTEQQRRNLIHALRQDPSDSAALLAIAKAWNDRQAPKAAAHHHHHHC
